Source: patent US12410152B2, “Oxazole and thioazole-type cullin ring ubiquitin ligase compounds and uses thereof” (Proxygen GmbH, priority 2019, dated 2025)
This continues a long series; more values of the same kind are listed elsewhere.

Tested on: KBM7 WT cells (global proteome)
Experiment: Quantitative expression proteomics (TMT isobaric tagging), drug vs DMSO
Type: cell-based, human
From the text: The mechanism by which the assayed molecules re-program a functional CRL4B complex based on the data shown could be that drug binding to CUL4B recruits a neo-substrate directly to the cullin backbone. Alternatively, drug binding could stabilize CUL4B function to boost time intervals where a functionally competent CUL4B complexes can be formed. Here, the word “functional” implies that the CUL4B backbone of this complex needs to be neddylated, and a CUL4B associated E2 ubiquitin-conjugating enzyme (UBE2G1) needs to be bound. FIG. 9 outlines one possible mechanism. Both predicted mechanisms of action would result in a functionally altered CRL4B complex, and thus an altered stability of drug-induced (neo-) substrates. In order to identify target proteins with a decreased abundance or, in other words, target proteins that become degraded by CRL4B after drug treatment, global proteome composition was measured using quantitative expression proteomics (TMT-labeling). In brief, KBM7 cells were drug treated for 12 hours, lysed, and subjected to isobaric tagging. Ensuing proteomics analysis quantified a total of 7,903 proteins at a minimum spectral count of 2. […] Data on essentiality are taken from Hart et al., G3, August 2017 (PMID: 28655737).
50×10^6 KBM7^WT cells per condition were collected, washed four times with ice-cold PBS, the supernatant aspirated and pellets snap-frozen in liquid N2. Each washed cell pellet was lysed separately in 40 μL of freshly prepared lysis buffer as previously described (see Mayor-Ruiz et al., Mol Cell 2019)
Offline Fractionation via RP-HPLC at high pH and 2D-RP/RP Liquid Chromatography Mass Spectrometry were performed as previously described (see Mayor-Ruiz et al., Mol Cell 2019).
Acquired raw data files were processed using the Proteome Discoverer 2.2.0 platform, utilizing the Sequest HT database search engine and Percolator validation software node (V3.04) to remove false positives with a false discovery rate (FDR) of 1% on peptide and protein level under strict conditions. Searches were performed with full tryptic digestion against the human SwissProt database v2017.06 with up to two allowed miscleavage sites. Oxidation (+15.9949 Da) of methionine was set as variable modification, whilst carbamidomethylation (+57.0214 Da) of cysteine residues and TMT 6-plex labelling of peptide N-termini and lysine residues were set as fixed modifications. Data was searched with mass tolerances of ±10 ppm and ±0.02 Da on the precursor and fragment ions, respectively. Results were filtered to include peptide spectrum matches (PSMs) with Sequest HT cross-correlation factor (Xcorr) scores of […] and high peptide confidence assigned by Percolator. MS^2 signal-to-noise values (S/N) values of TMT reporter ions were used to estimate peptide/protein abundance changes. PSMs with precursor isolation interference values of ≥ 50% and average TMT-reporter ion S/N≤10 were excluded from quantitation. Only unique peptides were used for TMT quantitation as well as for TOP3 label-free quantitation. Isotopic impurity correction and TMT channel-normalization based on total peptide amount were applied. For statistical analysis and p-value calculation, the integrated ANOVA hypothesis test was used. TMT ratios with p-values below 0.01 were considered as significant. Only proteins with >1 peptide detected and >1 unique peptide detected were considered for further analysis. For the calling of destabilized proteins, a log 2 fold change threshold (drug/DMSO) of −0.3 was applied.
Comparison of overall proteome-wide changes in KBM7 cells treated with IC020772.1 (2.5 μM), IC021313.2 (7 μM) or T6938051 (3.5 μM) for 5 h and 12h, using quantitative proteomics based on isobaric tagging.
The protein names in Table 4, Table 5 and Table 6 refer to the protein names as provided by HUGO Gene Nomenclature Committee (HGNC) database. […]

In the case of O=C(CSc1nnc2c(n1)[nH]c1ccccc12)Nc1ccc(Cl)cn1 [IC020772.1], the “log2FC (IC020772.1/DMSO)” value (OCLN (Q16625-1)) is reported as −0.4403, the “log2FC (IC020772.1/DMSO)” value (OFD1 (O75665-1)) is reported as −0.3659 and the “log2FC (IC020772.1/DMSO)” value (PARD6B (Q9BYG5-1)) is reported as −0.415. For the same compound, the “log2FC (IC020772.1/DMSO)” value (PCNX3 (Q9H6A9-1)) was −0.4759, the “log2FC (IC020772.1/DMSO)” value (PDK2 (Q15119-1)) was −0.3789 and the “log2FC (IC020772.1/DMSO)” value (PHF8 (Q9UPP1-1)) was −0.3771. The “log2FC (IC020772.1/DMSO)” value (PIAS1 (O75925-2)) was −0.3733, the “log2FC (IC020772.1/DMSO)” value (PLS1 (Q14651)) was −0.4403 and the “log2FC (IC020772.1/DMSO)” value (POC5 (Q8NA72-1)) was −0.3346. For the same compound, the “log2FC (IC020772.1/DMSO)” value (POLR3G (O15318)) was −0.4131, the “log2FC (IC020772.1/DMSO)” value (POLR21 (P36954)) was −0.3733 and the “log2FC (IC020772.1/DMSO)” value (PPFIA1 (Q13136-1)) was −0.3346. For the same compound, the “log2FC (IC020772.1/DMSO)” value (PPP1R10 (Q96QC0)) was −0.3419, the “log2FC (IC020772.1/DMSO)” value (PSPH (P78330)) was −0.482 and the “log2FC (IC020772.1/DMSO)” value (PTPN22 (Q9Y2R2-1)) was −0.3219. For the same compound, the “log2FC (IC020772.1/DMSO)” value (PVR (P15151-1)) was −0.4055, the “log2FC (IC020772.1/DMSO)” value (PYROXD1 (Q8WU10-1)) was −0.3201 and the “log2FC (IC020772.1/DMSO)” value (QRICH1 (Q2TAL8)) was −0.3752. For the same compound, the “log2FC (IC020772.1/DMSO)” value (QSOX1 (O00391-1)) was −0.3752, the “log2FC (IC020772.1/DMSO)” value (RAB3A (P20336)) was −0.4074 and the “log2FC (IC020772.1/DMSO)” value (RABGGTB (P53611)) was −0.3346. For the same compound, the “log2FC (IC020772.1/DMSO)” value (RAD51 (Q06609-1)) was −0.8211, the “log2FC (IC020772.1/DMSO)” value (RAD54B (Q9Y620-1)) was −0.6758 and the “log2FC (IC020772.1/DMSO)” value (RBM23 (Q86U06-1)) was −0.9269. For the same compound, the “log2FC (IC020772.1/DMSO)” value (RBX1 (P62877)) was −0.3201, the “log2FC (IC020772.1/DMSO)” value (REEP5 (Q00765-1)) was −0.3771 and the “log2FC (IC020772.1/DMSO)” value (RFWD3 (Q6PCD5)) was −0.6758. For the same compound, the “log2FC (IC020772.1/DMSO)” value (RFXANK (O14593-1)) was −0.3437, the “log2FC (IC020772.1/DMSO)” value (RGS18 (Q9NS28)) was −0.3346 and the “log2FC (IC020772.1/DMSO)” value (RIOK1 (Q9BRS2)) was −0.4131. For the same compound, the “log2FC (IC020772.1/DMSO)” value (RNF135 (Q8IUD6-1)) was −0.4501, the “log2FC (IC020772.1/DMSO)” value (RNF141 (Q8WVD5-1)) was −0.3696 and the “log2FC (IC020772.1/DMSO)” value (RNF181 (Q9P0P0)) was −0.9269. The “log2FC (IC020772.1/DMSO)” value (ROBO1 (Q9Y6N7-2)) was −0.4035, the “log2FC (IC020772.1/DMSO)” value (RPF1 (Q9H9Y2)) was −0.4501 and the “log2FC (IC020772.1/DMSO)” value (RRM2 (P31350-2)) was −0.7984. For the same compound, the “log2FC (IC020772.1/DMSO)” value (RWDD1 (Q9H446-1)) was −0.3364, the “log2FC (IC020772.1/DMSO)” value (S1PR4 (O95977)) was −0.3771 and the “log2FC (IC020772.1/DMSO)” value (SATB2 (Q9UPW6-1)) was −0.4481. The “log2FC (IC020772.1/DMSO)” value (SATBI (Q01826-2)) was −0.4461, the “log2FC (IC020772.1/DMSO)” value (SC5D (O75845)) was −0.3401 and the “log2FC (IC020772.1/DMSO)” value (SDF2 (Q99470)) was −0.3733. The “log2FC (IC020772.1/DMSO)” value (SETDB2 (Q96T68-1)) was −0.4383, the “log2FC (IC020772.1/DMSO)” value (SETX (Q7Z333-4)) was −0.3201 and the “log2FC (IC020772.1/DMSO)” value (SGF29 (Q96ES7)) was −0.4016. The “log2FC (IC020772.1/DMSO)” value (SH3BP5 (O60239-1)) was −0.3789, the “log2FC (IC020772.1/DMSO)” value (SIGLEC6 (O43699-1)) was −0.685 and the “log2FC (IC020772.1/DMSO)” value (SIGLEC12 (Q96PQ1-1)) was −0.8059. The “log2FC (IC020772.1/DMSO)” value (SIX3 (O95343)) was −0.4501, the “log2FC (IC020772.1/DMSO)” value (SLAIN1 (Q8ND83-1)) was −0.6804 and the “log2FC (IC020772.1/DMSO)” value (SLC4A7 (Q9Y6M7-7)) was −0.3978. The “log2FC (IC020772.1/DMSO)” value (SLC7A2 (P52569-3)) was −0.8009, the “log2FC (IC020772.1/DMSO)” value (SLC7A6 (Q92536)) was −0.3437 and the “log2FC (IC020772.1/DMSO)” value (SLC20A2 (Q08357)) was −0.3733. The “log2FC (IC020772.1/DMSO)” value (SLC29A1 (Q99808-2)) was −0.8288, the “log2FC (IC020772.1/DMSO)” value (SLC29A2 (Q14542-1)) was −0.482 and the “log2FC (IC020772.1/DMSO)” value (SLC38A2 (Q96QD8-1)) was −0.6943. For the same compound, the “log2FC (IC020772.1/DMSO)” value (SLC38A5 (Q8WUX1-1)) was −0.4074, the “log2FC (IC020772.1/DMSO)” value (SLC39A10 (Q9ULF5-1)) was −0.4364 and the “log2FC (IC020772.1/DMSO)” value (SLC39A14 (Q15043-1)) was −0.6943. The “log2FC (IC020772.1/DMSO)” value (SLC43A1 (O75387-2)) was −0.3201, the “log2FC (IC020772.1/DMSO)” value (SMG9 (Q9H0W8-1)) was −0.4055 and the “log2FC (IC020772.1/DMSO)” value (SNAPC1 (Q16533)) was −0.3401. For the same compound, the “log2FC (IC020772.1/DMSO)” value (SNX10 (Q9Y5X0-1)) was −0.4383, the “log2FC (IC020772.1/DMSO)” value (SP2 (Q02086-1)) was −0.4093 and the “log2FC (IC020772.1/DMSO)” value (SPINT2 (O43291-1)) was −0.3419. The “log2FC (IC020772.1/DMSO)” value (SUFU (Q9UMX1-1)) was −0.8625, the “log2FC (IC020772.1/DMSO)” value (SUGPI (Q8IWZ8-1)) was −0.3715 and the “log2FC (IC020772.1/DMSO)” value (SUMO2 (P61956-1)) was −0.3997. The “log2FC (IC020772.1/DMSO)” value (SURF6 (O75683)) was −0.8391, the “log2FC (IC020772.1/DMSO)” value (TADA2A (O75478-1)) was −0.3364 and the “log2FC (IC020772.1/DMSO)” value (TAF8 (Q7Z7C8-2)) was −0.4442. The “log2FC (IC020772.1/DMSO)” value (TCEANC2 (Q96MN5-1)) was −0.3364, the “log2FC (IC020772.1/DMSO)” value (TFDP1 (Q14186-1)) was −0.3789 and the “log2FC (IC020772.1/DMSO)” value (TIPIN (Q9BVW5)) was −0.4403. For the same compound, the “log2FC (IC020772.1/DMSO)” value (TK1 (P04183)) was −0.4403, the “log2FC (IC020772.1/DMSO)” value (TMEM59 (Q9BXS4)) was −0.4403 and the “log2FC (IC020772.1/DMSO)” value (TMEM131L (A2VDJ0-5)) was −0.8262. For the same compound, the “log2FC (IC020772.1/DMSO)” value (TNFAIP8L2 (Q6P589)) was −0.8262, the “log2FC (IC020772.1/DMSO)” value (TNFRSF8 (P28908-1)) was −0.9324 and the “log2FC (IC020772.1/DMSO)” value (TOX (O94900)) was −0.8836. For the same compound, the “log2FC (IC020772.1/DMSO)” value (TRIM11 (Q96F44-1)) was −0.4501, the “log2FC (IC020772.1/DMSO)” value (TSR3 (Q9UJK0)) was −0.4759 and the “log2FC (IC020772.1/DMSO)” value (TTC28 (Q96AY4)) was −0.3771. The “log2FC (IC020772.1/DMSO)” value (TTF2 (Q9UNY4-1)) was −0.4131, the “log2FC (IC020772.1/DMSO)” value (TYMS (P04818-1)) was −0.3997 and the “log2FC (IC020772.1/DMSO)” value (UBE2B (P63146)) was −0.4521. For the same compound, the “log2FC (IC020772.1/DMSO)” value (UCK1 (Q9HA47-4)) was −0.3437, the “log2FC (IC020772.1/DMSO)” value (UHRF1 (Q96T88-2)) was −0.8599 and the “log2FC (IC020772.1/DMSO)” value (USP11 (P51784)) was −0.3383. The “log2FC (IC020772.1/DMSO)” value (USP37 (Q86T82-1)) was −0.8443 and the “log2FC (IC020772.1/DMSO)” value (UTP14A (Q9BVJ6-1)) was −0.3752.
